# Measurements: the supplement of paper PMC7858590
# ± gives the standard deviation of the averaged measurements. The full ranking holds about 3,800 compounds; the median of “cell shape (eccentricity) Z-score vs DMSO control” is about 1.1, and the lowest 2% start at about -4.7. This is one part of the list.
# Tested on: human monocyte-derived macrophages (M0)
# Experiment: cell shape (eccentricity) Z-score vs DMSO control; higher = more elongated, M2-like morphology
# Settings: 20 µM; 24 h; macrophage state: M0 (M-CSF)
row,SMILES,cell shape (Z-score)
1,CC(C)=CCC/C(C)=C/CC/C(C)=C/Cc1c(C)cc(O)cc1O,-0.328
2,COC(=O)c1cc(CO)cc(O)c1C(=O)c1c(O)cccc1O,0.915
3,COc1nc(C)nc(Cl)c1NC1=NCCN1,0.738
4,O=C(c1ccc(F)cc1)C1CCN(CCn2c(=S)[nH]c3ccccc3c2=O)CC1,-0.52
5,C=CC/C=C\C/C=C\CCCCCCCc1cccc(O)c1C(=O)O,1.56
6,COc1c2occc2c(OC)c2c(=O)cc(C)oc12,1.97
7,O=C(O)CCC(=O)c1ccc(-c2ccccc2)cc1,4.1
8,Oc1c(I)cc(I)c2cccnc12,1.5
9,CC(=O)c1c(O)c(C)c(O)c2c1OC1=CC(=O)C(C(C)=O)C(=O)C12C (centres undefined),2.36
10,C=C1C(=O)O[C@H]2C3=C(C)C[C@H](OC(C)=O)C[C@]3(C)CC[C@@H]12,6.29
11,Cc1cc(-n2c(=O)[nH]c(=O)n(C)c2=O)ccc1Oc1ccc(SC(F)(F)F)cc1,2.6
12,C/C=C/c1ccc2c(c1)O[C@@H](CN(C)C(=O)c1ccccc1)[C@@H](C)CN([C@@H](C)CO)S2(=O)=O,6.42
13,CC(C)=CCc1c(O)cc(O)c2c1OC(c1ccc(O)c(O)c1)CC2=O (centres undefined),1.24
14,COc1cc2nc3occc3c(OC)c2cc1OCC(O)C(C)(C)O (centres undefined),1.64
15,COc1c(O)c(C(=O)/C=C\c2ccccc2)c(OC)c(OC)c1OC,5.2
16,COc1ccc2cc(CCC(C)=O)ccc2c1,0.994
17,O=C(/C=C/c1ccccc1)O[C@@H]1O[C@H](CO)[C@@H](O)[C@H](O)[C@H]1O,2.26
18,COc1cc([C@H](Cc2ccccc2)NC(C)=O)oc(=O)c1,2.15
19,CO/N=C(/C(=O)NC1C(=O)N2C(C(=O)OC(C)OC(C)=O)=C(COC(N)=O)CSC12)c1ccco1 (centres undefined),1.75
20,C[C@@H]1O[C@@H](O[C@H]2[C@H](O[C@H]3[C@H](O[C@H]4CC[C@@]5(C)C(CC[C@]6(C)C5CC=C5[C@@H]7CC(C)(C)C[C@@H](O)[C@]7(C)CC[C@]56C)[C@@]4(C)CO)O[C@H](C(=O)O)[C@@H](O)[C@@H]3O)OC[C@H](O)[C@@H]2O)[C@H](O)[C@H](O)[C@H]1O (some centres undefined),-1.07
21,Nc1ccc(/N=N/c2ccccc2)c(N)n1,-1.01
22,CCC(C)C1NC(=O)c2c1n(C)c1ccccc1c2=O (centres undefined),-1.06
23,CCN(Cc1ccncc1)C(=O)C(CO)c1ccccc1 (centres undefined),-0.586
24,CC(C)c1ccc2c(c1)CCC1C(C)(C(N)=O)CCCC21C (centres undefined),3.44
25,CC(=O)N(OCc1ccccc1)[C@@H]1c2cc(C#N)ccc2OC(C)(C)[C@H]1O,0.703
26,COc1cc2nc(N3CCN(C(=O)c4ccco4)CC3)nc(N)c2cc1OC,-2.47
27,CC(=O)NC(Cc1c[nH]c2ccccc12)C(=O)OCc1cc(C(F)(F)F)cc(C(F)(F)F)c1 (centres undefined),2.03

# Of the compounds above, three contain a COOH group.
row,SMILES,cell shape (Z-score)
5,C=CC/C=C\C/C=C\CCCCCCCc1cccc(O)c1C(=O)O,1.56
7,O=C(O)CCC(=O)c1ccc(-c2ccccc2)cc1,4.1
20,C[C@@H]1O[C@@H](O[C@H]2[C@H](O[C@H]3[C@H](O[C@H]4CC[C@@]5(C)C(CC[C@]6(C)C5CC=C5[C@@H]7CC(C)(C)C[C@@H](O)[C@]7(C)CC[C@]56C)[C@@]4(C)CO)O[C@H](C(=O)O)[C@@H](O)[C@@H]3O)OC[C@H](O)[C@@H]2O)[C@H](O)[C@H](O)[C@H]1O (some centres undefined),-1.07

# Next results follow:

row,SMILES,cell shape (Z-score)
1,COc1c(OC)c(O)c2c(=O)c(O)c(-c3ccccc3)oc2c1OC,4.23
2,COc1ccc2[nH]cc(CCNC(C)=O)c2c1,-0.192
3,O=C(CCc1ccc(O)cc1)c1c(O)cc(O[C@@H]2O[C@H](CO)[C@@H](O)[C@H](O)[C@H]2O)cc1O,1.9
4,C/C(=C\Cc1c(O[C@@H]2O[C@H](CO)[C@@H](O)[C@H](O)[C@H]2O)ccc2ccc(=O)oc12)CO,0.962 ± 0.97
5,CO[C@H]1C[C@@H]2CC[C@@H](C)[C@@](O)(O2)C(=O)C(=O)N2CCCC[C@H]2C(=O)O[C@H]([C@H](C)C[C@@H]2CC[C@@H](O)[C@H](OC)C2)CC(=O)[C@H](C)/C=C(\C)[C@@H](O)[C@@H](OC)C(=O)[C@H](C)C[C@H](C)/C=C/C=C/C=C/1C,0.164 ± 1.3
6,Oc1nc2cc(Cl)c(Cl)cc2nc1O,1.51
7,N#C/C(=C\c1ccc(O)c(O)c1)C(=O)NC1CCC(CC2CCC(NC(=O)/C(C#N)=C/c3ccc(O)c(O)c3)CC2)CC1 (centres undefined),0.897
8,C1=C(CN2CCOCC2)COc2c1cccc2OCC1CNCCO1 (centres undefined),2.61
9,CC1=CCC(C(C)(C)O[C@@H]2O[C@H](COC(=O)c3cc(O)c(O)c(O)c3)[C@@H](O)[C@H](O)[C@H]2O)CC1 (some centres undefined),-0.772
10,COc1cc2c(cc1O)C1(O)Cc3ccc4c(c3C1N(C)CC2)OCO4 (centres undefined),0.0689
11,C/C=C/C/C=C/CCC(=O)[C@H]1O[C@H]1C(N)=O,2.07
12,O=C(O)CCCc1ccccc1,0.59
13,Cc1ccc(-c2nn(C(C)(C)C)c3ncnc(N)c23)cc1,0.687
14,CC1OC(OCC2OC(O[C@H]3CC[C@@]4(C)C(CC[C@@]5(C)C6=C(CCC45)C4CC(C)(C)CC[C@]4(C(=O)OC4OC(CO)C(O)C(O)C4O)CC6)C3(C)C)C(O)C(O)C2O)C(O)C(O)C1O (some centres undefined),4.2 ± 2.3
15,NC(CC(=O)Nc1ccc(Oc2cc(F)c(F)cc2Br)cc1)C(=O)O (centres undefined),1.14
16,CC(=O)Oc1ccc(C(=C2CCCCC2)c2ccc(OC(C)=O)cc2)cc1,0.835
17,CC(=O)/C=C/C1(O)C(C)CCC2C(C)(C)CCCC21C (centres undefined),-2.22 ± 0.82
18,COc1cccc2c1C(=O)c1c(O)c3c(c(O)c1C2=O)CC(O)(C(=O)CO)CC3OC1CC(N)C(O)C(C)O1 (centres undefined),2.61
19,CC(=O)OC1CC2(C)C3CC=C4C(CC(O)C(O)C4(C)C)C3(C)CCC2(C)C1C(C)(O)C(=O)CCC(C)(C)O (centres undefined),1.76
20,CC(=O)OCC(=O)[C@@]1(O)CCC2C3CCC4=CC(=O)C=C[C@]4(C)[C@@]3(Cl)[C@@H](Cl)C[C@@]21C (some centres undefined),-2.51
21,C=C1C(=O)O[C@@H]2[C@H]3C(CO)=CC(=O)C3=C(C)C[C@H](OC(=O)Cc3ccc(O)cc3)[C@@H]12,-6.23
22,COc1cc(O)cc(C(=O)O)c1Oc1cc(C)cc(O)c1C(=O)O,0.855
23,C[C@]12CCC(=O)C=C1C=CC1C2CC[C@@]2(C)C1CC[C@@]21CCC(=O)O1 (some centres undefined),3.08
24,COC1=CC(=O)C[C@@H](C)[C@]12Oc1c(Cl)c(OC)cc(OC)c1C2=O,-0.627
25,CC1(CCOC2OC(CO)C(O)C(O)C2O)CCC2C(=CCC3C(C)(C(=O)O)CCCC23C)C1 (centres undefined),3.65 ± 3.6
26,CC[C@H]1OC(=O)[C@H](C)[C@@H](O[C@H]2C[C@@](C)(OC)[C@@H](O)[C@H](C)O2)[C@H](C)[C@@H](O[C@@H]2O[C@H](C)C[C@H](N(C)C)[C@H]2O)[C@](C)(O)C[C@@H](C)C(=O)[C@H](C)[C@@H](O)[C@]1(C)O,6.87
27,CC(=O)Oc1cccc(O)c1,2.65
